In PubChem BioAssay AID504467 (National Center for Advancing Translational Sciences (NCATS), 2011):
Hit rate of the full screen: of about 330,000 compounds, about 7,700 (2.3%) were called active. The shares of active, inactive and inconclusive entries below differ from those in the screen. The call rests on the fitted dose curve; in most records, active means well fitted inhibition curve with a large enough effect; inconclusive means small, poorly fitted or top-dose-only effect, or effect the other way; inactive means flat fitted curve, though single readings scatter. Where the call is inconclusive, the potency comes from a doubtful curve fit.

Experiment: qHTS screen for small molecules that inhibit ELG1-dependent DNA repair in human embryonic kidney (HEK293T) cells expressing luciferase-tagged ELG1; further: nearly all actives have a fitted effect of over 55% in size
Settings: HEK293T ELG1-luciferase reporter, luminescence, 16 h, DNA damage induced by 5-fluorouridine; series mostly up to 46.1 µM
In short: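 Cells (2,000 per well) received 5-fluorouridine plus test compound or DMSO and were incubated 16 hr at 37 °C, 5% CO2. Luciferase activity was read by luminescence 30 min after ONE-Glo addition; signal suppression marked inhibition of damage-induced ELG1 function.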
Potency means the concentration at half of the fitted maximal effect.

Structure (SMILES)	Potency
COc1ccc(Nc2nc(N)nc(CN3CCC(Cc4ccccc4)CC3)n2)cc1	inconclusive: 29.1 µM [inhibitor, single point]
Cc1nn(Cc2ccc(Cl)cc2Cl)c(C)c1NC(=O)c1ccc(COc2cc(Cl)ccc2Cl)o1	inconclusive: 23.1 µM [inhibitor, partial curve, poor fit]
COC(=O)c1cc(Cl)c(NC(=O)c2ccc(C(C)(C)C)cc2)cc1OC	inconclusive: 29.1 µM [inhibitor, single point]
COc1ccc(CNC(=O)c2cc3cc(OC)ccc3oc2=O)cc1	inactive
COc1ccc(Nc2oc(COc3ccc(OC)cc3)nc2C#N)cc1	inconclusive: 29.1 µM [inhibitor, single point]
Cc1cccc(CSCc2nnc(N)s2)c1	inconclusive: 18.4 µM [activator, single point]
Cc1ccc2cccc(OCCCOc3ccccc3F)c2n1	inactive
COc1ccccc1-c1nnc(NC(=O)C(C)C)s1	inconclusive: 8.91 µM [activator, partial curve, poor fit]
Cc1cc(NC(=O)COc2ccc(C(C)(C)C)cc2)no1	inconclusive: 29.1 µM [activator, single point]
Cc1ccc(NC(=O)c2ccccc2O)cc1	inconclusive: 2.59 µM [activator, partial curve]
Nc1nc(SCC(=O)Nc2ccc(Br)cc2F)n[nH]1	inactive
Cc1ccc(-n2ncc3c(Nc4cccc(C(=O)O)c4)ncnc32)cc1	inconclusive: 2.31 µM [activator, full curve]
Cc1nc2ccc(NS(=O)(=O)c3cccc([N+](=O)[O-])c3)cc2s1	inconclusive: 4.61 µM [inhibitor, full curve, poor fit]
Cc1cccc(/C=C/c2onc(C)c2S(=O)(=O)N2CCC(C(=O)N3CCCCC3)CC2)c1	active: 2.91 µM
O=C(NCC(c1cccs1)N1CCOCC1)C1CCN(S(=O)(=O)c2cccc(C(F)(F)F)c2)CC1 (stereo unspecified)	inactive
CC(=O)Nc1cccc(C(=O)NCC2(N3CCCCC3)CCCCC2)c1	inconclusive: 9.2 µM [activator, partial curve, poor fit]
CC(=O)C1=C(O)C(=O)N(Cc2ccco2)C1c1ccccc1 (stereo unspecified)	inconclusive: 1.16 µM [inhibitor, single point]
COc1ccc2c(c1)cc1c(=O)n(CC(=O)NC(C)CCc3ccccc3)nc(C)n12 (stereo unspecified)	inconclusive: 16.4 µM [activator, partial curve, poor fit]
COC(=O)c1ccccc1NC(=O)c1cc(-c2ccc(O)cc2)on1	inconclusive: 14.6 µM [activator, partial curve, poor fit]
Clc1cccc(Cl)c1Cn1cnc2c(N3CCCCCC3)ncnc21	inconclusive: 20.6 µM [inhibitor, single point]
Cn1c(=O)c2nc(-c3ccccc3)oc2c2ccccc21	inconclusive: 18.4 µM [activator, single point]
O=C(CC1Nc2ccccc2NC1=O)NCCc1ccccc1 (stereo unspecified)	inactive

Retrieved by structure from above:
Structure (SMILES)	Potency
COC(=O)c1ccccc1NC(=O)c1cc(-c2ccc(O)cc2)on1	inconclusive: 14.6 µM [activator, partial curve, poor fit]
COc1ccc2c(c1)cc1c(=O)n(CC(=O)NC(C)CCc3ccccc3)nc(C)n12 (stereo unspecified)	inconclusive: 16.4 µM [activator, partial curve, poor fit]

The listing continues:

Structure (SMILES)	Potency
CCC(=O)N1CCN(c2ccc(NC(=S)NC(=O)c3cccc([N+](=O)[O-])c3)cc2)CC1	inconclusive: 23.1 µM [inhibitor, partial curve]
Cn1c(-c2ccccc2F)cc2onc(-c3ccccc3)c2c1=O	inconclusive: 0.651 µM [activator, full curve]
O=C(CCl)N(C1CCCC1)C1CCS(=O)(=O)C1 (stereo unspecified)	inconclusive: 8.2 µM [inhibitor, partial curve]
O=C(NC1CCCC1)c1n[nH]c2ccccc12	inconclusive: 16.4 µM [activator, partial curve]
Cn1c(N)c(C(=O)CSc2nn(-c3ccccc3)c(=S)s2)c(=O)n(C)c1=O	inconclusive: 5.8 µM [inhibitor, partial curve, poor fit]
O=C(CSc1nc2ccccc2c(=O)[nH]1)N1CCCCCC1	inconclusive: 29.1 µM [activator, single point]
CCOc1ccc2nc(SCC(=O)N(C)C)[nH]c2c1	inconclusive: 9.2 µM [activator, partial curve]
CC(=O)N=c1c(C#N)cc2c(=O)n3ccccc3nc2n1CCCOC(C)C	inactive
Cc1nn2c(SCC(=O)c3cccs3)cc(C(C)(C)C)nc2c1-c1ccccc1	inconclusive: 23.1 µM [inhibitor, partial curve]
CCN(CCn1cccn1)Cc1c(C(=O)N2CCCCCCC2)nc2ccc(Cl)cn12	inconclusive: 18.3 µM [inhibitor, partial curve, poor fit]
COc1ccccc1NC(=O)C(C)N1C(=O)c2ccccc2C1=O (stereo unspecified)	inactive
N#C/C(=C\c1ccc2c(c1)OCCO2)C(=O)Nc1ccc(C(=O)O)cc1	inconclusive: 25.9 µM [activator, single point]
Cc1n[nH]c(C)c1CCc1nc2c3ccccc3nc(SCC(N)=O)n2n1	active: 23.1 µM
CSc1nnc(-c2cc3c(-c4ccccc4)nn(C)c3s2)n1C	inconclusive: 25.9 µM [inhibitor, partial curve, poor fit]
COc1ccc(NC(=O)C2CCCN(S(=O)(=O)c3cccc4cccnc34)C2)c(OC)c1 (stereo unspecified)	inconclusive: 18.4 µM [inhibitor, single point]
CCCc1ccc(O)c(N=Cc2cc(Br)cc(OCC)c2O)c1	inconclusive: 23.1 µM [inhibitor, partial curve, poor fit]
Cc1cc(N/C=C/C(=O)c2ccccc2)ccc1Br	inconclusive: 2.59 µM [activator, full curve]
CC(=O)c1sc(NC(=O)c2ccccc2C)nc1C	inconclusive: 20.6 µM [activator, single point]
C=CCN1N=C(/C=C/c2ccc(C)cc2)CCC1=O	inconclusive: 16.4 µM [activator, partial curve]
CC(Sc1ccccn1)C(=O)Nc1ccccc1 (stereo unspecified)	inconclusive: 18.4 µM [activator, partial curve]
CCOC(=O)Cc1c(C)nc2cc(-c3ccc(C(C)(C)C)cc3)[nH]n2c1=O	inconclusive: 20.6 µM [activator, single point]
Brc1ccc(-c2nnc(-c3ccccc3)o2)o1	inconclusive: 14.6 µM [activator, partial curve]

Structure (SMILES)	Potency
CCC(CC)NC(=O)Nc1ccc(F)c(Cl)c1	inconclusive: 29.1 µM [inhibitor, single point]
Nc1nn(-c2cccc(F)n2)cc1-c1ccccc1	inconclusive: 8.2 µM [activator, partial curve]
Cc1cccc(NS(=O)(=O)c2cc3c(cc2C)NC(=O)CO3)c1	inactive
O=C(Nc1nc(-c2cccc3ccccc23)cs1)c1ccc2c(c1)S(=O)(=O)c1ccccc1C2=O	inconclusive: 11.6 µM [activator, partial curve]
CC(=O)NCc1ccc(C(=O)CCl)cc1	inconclusive: 25.9 µM [activator, single point]
COc1ccc(/C=C/C(=O)Nc2cccc(S(=O)(=O)N3CCOCC3)c2)cc1OC	active: 20.6 µM
CCc1noc(C)c1C(=O)N(C)CC(=O)Nc1ccc(F)c(F)c1F	inconclusive: 23.1 µM [inhibitor, single point]
O=C(O)CN1CCN(Cc2ccccc2)C1=O	inconclusive: 1.3 µM [activator, full curve, poor fit]
Cc1cc(NC(=O)c2ccc(F)cc2)n(-c2ccccc2)n1	inconclusive: 23.1 µM [activator, partial curve, poor fit]
O=C(C1CCCN(S(=O)(=O)c2ccccc2)C1)N1CCN(c2ccccc2)CC1 (stereo unspecified)	inconclusive: 20.6 µM [inhibitor, single point]
Cc1cc(=O)oc2cc(NC(=O)c3cccc(Br)c3)ccc12	inconclusive: 5.17 µM [activator, single point]
O=C(Nc1cccc(S(=O)(=O)NC2=NCCC2)c1)c1ccc(=O)[nH]c1	inactive
Cc1ccc(S(=O)(=O)N2CCN(C(=O)CCC(=O)NCc3cccc(C(F)(F)F)c3)CC2)cc1	inactive
O=C(NCC(c1cccs1)N1CCOCC1)c1ccccc1NS(=O)(=O)c1ccc(Cl)c([N+](=O)[O-])c1 (stereo unspecified)	inconclusive: 25.9 µM [inhibitor, single point]
O=C(COc1coc(CN2CCN(c3ccccc3F)CC2)cc1=O)NC1CCCC1	inactive
Cc1cnc(C(=O)OCC(=O)Nc2cc(-c3cc(C)c(C)cc3C)nn2-c2ccccc2)cn1	inconclusive: 0.164 µM [inhibitor, single point]
COc1ccc(-c2[nH]c3ccccc3c2SCCN)cc1	inconclusive: 18.3 µM [activator, partial curve, poor fit]
C=CCN1C(=O)C(Cc2ccc(F)cc2)S/C1=N/N=C/c1cccs1 (stereo unspecified)	inactive
CCN(CC)S(=O)(=O)c1ccc(OC)c(NC(=O)C2CC(=O)N(c3ccc4c(c3)OCCO4)C2)c1 (stereo unspecified)	inconclusive: 25.9 µM [inhibitor, single point]
COCCCN(C(=O)Cc1ccc(Cl)c(Cl)c1)c1c(N)n(Cc2ccccc2)c(=O)[nH]c1=O	inconclusive: 8.2 µM [inhibitor, partial curve]
CC(=O)c1c(C)[nH]c(C(=O)OCC(=O)NCc2ccc(Cl)cc2)c1C	inconclusive: 20.6 µM [inhibitor, single point]
COc1cccc(-c2nn(-c3ccccc3)cc2CN2CCCO2)c1	inconclusive: 18.3 µM [inhibitor, single point]

2 neighbouring entries from above:
Structure (SMILES)	Potency
CC(=O)NCc1ccc(C(=O)CCl)cc1	inconclusive: 25.9 µM [activator, single point]
COc1ccc(/C=C/C(=O)Nc2cccc(S(=O)(=O)N3CCOCC3)c2)cc1OC	active: 20.6 µM
